This note sets out measurements from paper PMC13225219.

These are yes or no findings as the source states them, for the method shown. Binding calls can cover weak binding; strength is not graded here. Tags and fused reporters may be left off the sequences shown.

The target in the assay is T1, GST-Drak (435-532) (Drosophila melanogaster) (UniProt Q0KHT7).
T1 sequence: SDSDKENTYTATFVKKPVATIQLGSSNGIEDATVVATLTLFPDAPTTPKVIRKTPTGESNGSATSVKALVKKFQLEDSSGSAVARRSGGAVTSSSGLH
Kind of assay: pull-down; GST-Drak on glutathione agarose; 100 µl of 0.2-10 µM Filamin fragment, 20 min on ice in 20 mM Tris-HCl pH 7.5, 100 mM NaCl, 1 mM DTT; washed with PBS; stain-free SDS-PAGE, Filamin to Drak band ratio; both purified.

“Filamin-closed (five-domain Drosophila Filamin fragment Cher15-19closedMSR) (domain or fragment)”: the binding result is “no binding (tested: 10 μM)”.
As for “Filamin-open (five-domain Drosophila Filamin fragment Cher15-19openMSR) (domain or fragment)”, the binding result is “binds”.
In the case of “Filamin-wild type (five-domain Drosophila Filamin fragment Cher15-19wt) (domain or fragment)” it was “binds weakly”.
